Test results published in PubChem BioAssay AID1794845 (National Center for Advancing Translational Sciences (NCATS), 2023).
Among all 6,900 compounds or so, fewer than 10 were called active. The call rests on the fitted dose curve; in most records, active means well fitted curve in the direction sought with a large enough effect; inconclusive means small, poorly fitted or top-dose-only effect, or another doubt; inactive means no such curve, though single readings can be large or run the other way. The list shows a part of the results.

Amino acid sequences for entries named in this document (tags omitted). A change or cut given only in a name is not applied to a line headed by its entry.
UniProt C7C422: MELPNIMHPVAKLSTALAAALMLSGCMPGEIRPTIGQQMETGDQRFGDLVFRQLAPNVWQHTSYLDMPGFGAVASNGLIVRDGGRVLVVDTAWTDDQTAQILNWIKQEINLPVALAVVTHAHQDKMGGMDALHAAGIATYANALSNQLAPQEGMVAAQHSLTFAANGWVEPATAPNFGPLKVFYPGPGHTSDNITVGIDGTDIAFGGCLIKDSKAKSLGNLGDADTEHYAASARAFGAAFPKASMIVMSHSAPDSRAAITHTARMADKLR

What follows are molecules tested against Metallo-beta-lactamase type 2 (Klebsiella pneumoniae) (UniProt C7C422) (assay: qHTS to identify inhibitors of the New Delhi Metallo-beta-lactamase (NDM): primary screen against the NCATS Gemini Collection). Conditions: NDM-1 enzyme, meropenem hydrolysis, absorbance 300 nm; at 38.4 µM (top of the series) unless noted.
In short: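 NDM-1 at 2 nM final in 50 mM HEPES pH 7.0, 1 uM ZnSO4, 0.01% Tween20, preincubated >30 min with compound. Meropenem 50 uM final added; absorbance at 300 nm after 30 min.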
Further: % of control where 0% means no effect.

Activity % (negative = inhibition), inactive:
CNC(=O)[C@H]1C[C@H](Oc2ccccc2)CN1S(=O)(=O)c1c(C)noc1C -5.45%
COc1ccc(C(=O)N2CCC([C@@H]3CNC[C@H]3CO)CC2)cc1 -3.89%
O=C(c1ccncc1)N1CC(N(Cc2ccncc2)CC2CC2)C1 -0.363%
COCC(=O)N1CC(F)(F)C[C@H]1c1nc(-c2cccnc2)no1 -1.2%
Cc1noc(C)c1C(=O)N1CC(N2C(=O)c3c(c(C)nn3-c3ccccc3)C2C)C1 (stereo not given) 5.22%
Cc1cc(C2CCCN2C(=O)c2ccc(F)c(F)c2)on1 (stereo not given) -0.973%
COc1cc(CNCCC(C)C)ccc1OCC(O)CN1CCSCC1 (stereo not given) 21.1%
CN1CCCC1c1nc(C2CN(C(=O)c3ccsc3)C2)no1 (stereo not given) 1.5%
CNC(=O)N1CCC(C2CCN(C(=O)c3cnccn3)C2)CC1 (stereo not given) -1.88%
O=C(Cc1ccc(-n2cnnn2)cc1)N[C@@H]1COCC[C@@H]1OCc1ccccc1 -2.51%
Cc1ccc(C(=O)N(C)CC2CCOC2)cc1 (stereo not given) -4.44%
Cc1cc(C(=O)N[C@@H]2CCC[C@@H](C(=O)N(C)Cc3cccnc3)CC(=O)N(C)C2)no1 -12.2% [at 57.5 µM]
O=C1[C@H]2CN(S(=O)(=O)c3ccc(F)cc3)CCN2C(=O)N1CCO -0.0645% [at 57.5 µM]
COc1ccc(Cn2c3c(c(=O)n2Cc2ccccc2)CCN(Cc2c(C)noc2C)C3)cc1 -7.71%
Cc1noc(C)c1S(=O)(=O)N1CCC2(C1)N=C(c1ccccn1)C(=O)N2 (stereo not given) -5.38%
CC(C)CNC(=O)N1CCCCC1c1nc(CCOc2ccc(F)cc2)no1 (stereo not given) 14.2%
CCn1nc(CC(C)C)cc1C(=O)N(C)C1CCCN(C2Cc3ccccc3C2)C1 (stereo not given) -0.542%
O=C(CC1CC1)NC1CCCc2nc(-c3ccccc3)ncc21 (stereo not given) 7.73%
CC(=O)N1CCC2(CCN(C(=O)c3ccc(Cl)cc3)CC2)Oc2ccccc21 3.71%
COc1ccc(CC(=O)NC[C@@H]2CC[C@H]3C[C@@H]2C3(C)C)cc1 2.81% [at 57.5 µM]
CN(C)C[C@H]1O[C@@H](CO)[C@@H](O)[C@H]1N1CCN(c2ncccn2)CC1 37.7%
CC(C)CN1CC(COc2ccc3ccccc3c2)Oc2ccnc(-c3ccc(OCC(=O)O)cc3)c2C1=O (stereo not given) 15%
Cc1cc(C)c2[nH]c(CN3CCC(N)C3)cc(=O)c2c1 (stereo not given) 15.9%
C=C(C)COc1ccc(C(=O)N2CCN3C(=O)CN(C)C(=O)C3C2)cc1 (stereo not given) -1.35%
O=C(C1CCCN1C(=O)c1ccccc1Cl)N1CCC(c2nc3ccncc3[nH]2)CC1 (stereo not given) -0.206%
O=C(c1ccc(N2CCC(O)CC2)nc1)N1CCC(N2CCOCC2)CC1 9.57%
CN(C)Cc1nnc(C2CC(NC(=O)CC3Cc4ccccc4C3)C2)n1C (stereo not given) 1.47%
COc1cccc(C(O)c2nc(C(=O)N3CCN(c4ccccn4)CC3)c(C)o2)c1 (stereo not given) 10.6% [at 57.5 µM]
COc1ccc(C(=O)N2CCCCC23Cc2ccccc2NC3=O)cc1 (stereo not given) -11.2% [at 57.5 µM]
CCc1nc2c(c(-c3ccc(O)cc3)n1)CN(Cc1ccc(NC(C)=O)cc1)CC2 13.5%
O=C(NC1CCN(C(=O)c2ccc(-c3cncnc3)cc2)CC1)c1ccccc1F -0.941%
Cc1cc(C(=O)N2CCC(CCOc3ccc(F)cc3)C2)c(C)n1Cc1ccc(F)cc1 (stereo not given) 9.45%
C=CCNC(=O)N[C@H]1C[C@@H](C(=O)N[C@@H](Cc2ccc(OC)cc2)C(N)=O)N(C(=O)CC(C)(C)C)C1 -0.476%
CSc1ccc(-c2cccc(C(=O)NCC(=O)N3CCCC3)c2)cc1 19.8%
OC1CCOC2(CCN(Cc3cccnc3)CC2)C1 (stereo not given) 1.35%
CC(=O)NC(CO)C(=O)N1CCc2[nH]nc(-c3ccc(F)c(F)c3)c2C1 (stereo not given) 17.7%
c1ccc(-c2noc(-c3cncnc3NC3CCCCC3)n2)cc1 63.8%
c1ccc(N2CCC(Cn3ccnc3-c3cc4n(n3)CCCNC4)C2)cc1 (stereo not given) 4.71%
O=C(NC1CCN(c2cc(-c3ccc(Cl)cc3)[nH]n2)C1)c1c[nH]c2ccccc12 (stereo not given) 30.6%
O=C(COc1ccccc1)NCCn1cccc1-c1nc(-c2ccc3c(c2)OCO3)no1 20.6%
COc1cc(F)c(-c2nccn2CC(O)c2ccccc2)cc1OC (stereo not given) 0.362%
CC(C)(CC(=O)O)CC(=O)N1Cc2[nH]cnc2C[C@H]1C(=O)NC1CCCCC1 4.65% [at 57.5 µM]
Cc1cc(C)cc(-c2ccc(CN3CCCC(N[S+](=O)([O-])c4cccs4)C3)cc2)c1 (stereo not given) -0.0669%
O=C1NC2(CCN(Cc3ccccc3C(F)(F)F)C2)COc2ccccc21 (stereo not given) 13.6%
O=C(C1CC1)N1C[C@@H]2OCC(=O)N(CC3CC3)[C@@H]2C1 -1.16% [at 77.1 µM]
O=C(CC[C@@H]1CNC(=O)[C@@H]2C[C@H](NC(=O)C3CC3)CN12)NCc1cccs1 -0.226% [at 57.5 µM]
O=C(CC1CCOCC1)N1CCN(c2ncccn2)CC1 12.5%
O=C(Nc1ccc2c(N3CCCCC3)ncnc2c1)c1ccccc1C(F)(F)F 2.19%
CCS(=O)(=O)N1CCC2(CC1)CC(N1CCN(C(C)C)CC1)CCO2 (stereo not given) 0.626%
CC(=O)NC1CCN(Cc2cn(-c3ccccc3F)nc2-c2cc(C)sc2C)C1 (stereo not given) -0.368%
O=C1CCCCC(C(=O)NCCc2ccncc2)N1 (stereo not given) -9.07%
COC(=O)N1CCCN(c2nccc(Nc3ccc(C)cc3)n2)C1 -3.31% [at 57.5 µM]
COc1ccc(N2CC3CCC(C2)N3Cc2cccc(Cl)c2)cc1 -0.387%
FC(F)(F)c1cccc(C2=NOC3(CCCN(CC4CCCCC4)C3)C2)c1 (stereo not given) 7.3%
O=C(c1ccc(F)cc1)N1CCC(N2CCCCCC2=O)CC1 6.1% [at 57.5 µM]
CN(C(=O)C1(N)CC1)C1CCCN(CCCc2ccccc2)C1 (stereo not given) 29.4%
O=S(=O)(N[C@H]1[C@H](O)[C@H](O)C[C@@H]1c1cncnc1)c1ccc(Cl)cc1 4.46% [at 57.5 µM]
O[C@@H]1CC(CNCc2ccc(F)cc2)(COc2cccnc2)C[C@@H]1O (stereo not given in full) 36.3% [at 57.5 µM]
O=C(CN1CCOCC1)N1CCC(c2cc(N3CCCC3)ncn2)CC1 -2%
Cc1ncccc1C(=O)N1CCCN(C(=O)C2CC2)C(c2ccccc2)CC(=O)NCC1 (stereo not given) 1.83%
Cc1nn(-c2ccccc2)c2c1C(C1CC1)N(C1CN(C(=O)Nc3ccccc3)C1)C2=O (stereo not given) -3.25%
Cc1ccc(C(C(=O)NCc2c(C)n[nH]c2C)N(C)C)cc1 (stereo not given) 2.18%
CC[C@H]1CN(S(=O)(=O)c2ccc(OC)cc2)CC[C@H]1CC(=O)NCc1cccnc1 -5.12% [at 57.5 µM]
CCOC(=O)C1CCCN(C(=O)C2CC(c3ccc(CC)cc3)CN(C(C)=O)C2)C1 (stereo not given) -0.291%
O=C(Nc1cccc(Cl)c1)[C@@H]1C[C@H](c2ccc(F)cc2)N([S+](=O)([O-])C2CC2)C1 -4.3% [at 57.5 µM]
Cc1ccc(N2CCN(C(=O)c3noc(-c4ccc[nH]c4=O)n3)CC2)cc1 40.4%
COc1ccc(F)cc1S(=O)(=O)N1C[C@@H](C(N)=O)[C@H](C2CCN(C)CC2)C1 5.81%
CC1(CCC(=O)N2CCCC2C(=O)Nc2ccccc2Oc2cccnc2)CC1 (stereo not given) 1.27%
CSCCC(=O)N1CCC(C2CCN(c3ncccn3)CC2)C1 (stereo not given) 17.7%
Cc1ccc(C(=O)N2CCC3(CC2)N=C(c2cccc(Br)c2)NO3)s1 -0.31%
N#Cc1cnc(N2CC3CCC(C2)N3CC(F)(F)F)s1 10.6% [at 57.5 µM]
COc1ccccc1CN(C)C1CCc2ccccc21 (stereo not given) 8.3% [at 57.5 µM]
O=C(N[C@H]1CCOC[C@H]1C1CCOCC1)c1cc2ncccn2n1 61.1%
O=C(NC1CCCCC1)c1nn(CCOc2ccccc2)c2c1CNCC2 -2.67%
CN1CCCC2(CC1)CCN(C(=O)c1ccc(C#CC(C)(C)O)cc1)CC2 9.2%
CN(CCc1ccccc1)C(=O)c1cc(-c2ccc[nH]2)n[nH]1 -4.72%
Cc1ccc(F)c(C(=O)N[C@H]2CCOC[C@H]2C2CCOCC2)c1Cl 0.677%
N#CC1CCN(C(=O)c2nc(-c3ccc(Cl)cc3Cl)c3ccccn23)CC1 -1.02%
CC(C)[C@@H]1C[C@@H]2C[C@@H](Nc3ccccn3)C[C@]2(c2ccccc2)CO1 -0.569%
CC1CCCC(C)N1C(=O)c1ccc2nc(-c3cccnc3)oc2c1 (stereo not given) 9.96% [at 57.5 µM]
O=C(CC1CCCC1)N1CC[C@@H]2COCCN(Cc3ccccc3)[C@@H]2C1 0.752%
CNc1cc(C2CC(NC(=O)COc3ccc(Cl)cc3C)C2)nc(N)n1 (stereo not given) -5.16%
COCCn1cnnc1C(C)NC(=O)c1cn(C2CCC(N)CC2)nn1 (stereo not given) 5.59%
COc1ccccc1-c1nocc1CCC(=O)O 5.56%
CCCNC(=O)NCCc1ncc(C)n1CC1CC1 2.69%

Arranged by length of the SMILES (ascending): part of the list above.
Activity % (negative = inhibition), inactive:
COc1ccccc1-c1nocc1CCC(=O)O 5.56%
O=C(NC1CCCCC1)c1nn(CCOc2ccccc2)c2c1CNCC2 -2.67%
CC(C)CNC(=O)N1CCCCC1c1nc(CCOc2ccc(F)cc2)no1 (stereo not given) 14.2%
CN(C)Cc1nnc(C2CC(NC(=O)CC3Cc4ccccc4C3)C2)n1C (stereo not given) 1.47%

2 entries drawn at random from those above:
Activity % (negative = inhibition), inactive:
COc1cccc(C(O)c2nc(C(=O)N3CCN(c4ccccn4)CC3)c(C)o2)c1 (stereo not given) 10.6% [at 57.5 µM]
O=C(C1CCCN1C(=O)c1ccccc1Cl)N1CCC(c2nc3ccncc3[nH]2)CC1 (stereo not given) -0.206%
